# From the supplement of paper PMC8728848
# Some of the results follow.
# Tests used:
# Experiment in all cases: glycan array binding signal (z-score within array); higher = stronger binding
# Settings in all cases: glycan notation: IUPAC condensed, linker removed
# [1] = biological target: Fuc(a1-2)Gal(b1-4)GlcNAc(b1-2)[Fuc(a1-2)Gal(b1-4)GlcNAc(b1-4)]Man(a1-3)[Fuc(a1-2)Gal(b1-4)GlcNAc(b1-2)Man(a1-6)]Man(b1-4)GlcNAc(b1-4)GlcNAc
# Procedure, shortened: (§1)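 Arrays were curated from the Consortium for Functional Glycomics database, 3228 in total, and kept only where the protein sequence was available. Binding is expressed as a within-array Z-score. This score was averaged across arrays of the same protein sequence at different concentrations or buffers and across linkers, and negative values can be read as non-binding.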
# [2] = biological target: Fuc(a1-2)Gal(b1-4)GlcNAc(b1-3)Gal(b1-4)GlcNAc
# Procedure, shortened: as §1
# [3] = biological target: Fuc(a1-2)Gal(b1-4)GlcNAc(b1-3)Gal(b1-4)GlcNAc(b1-2)Man(a1-3)[Fuc(a1-2)Gal(b1-4)GlcNAc(b1-3)Gal(b1-4)GlcNAc(b1-2)Man(a1-6)]Man(b1-4)GlcNAc(b1-4)GlcNAc
# Procedure, shortened: as §1
# [4] = biological target: Fuc(a1-2)Gal(b1-4)GlcNAc(b1-3)Gal(b1-4)GlcNAc(b1-3)Gal(b1-4)GlcNAc
# Procedure, shortened: as §1
# [5] = biological target: Fuc(a1-2)Gal(b1-4)GlcNAc(b1-3)GalNAc
# Procedure, shortened: as §1
# [6] = biological target: Fuc(a1-2)Gal(b1-4)GlcNAc(b1-3)[Fuc(a1-2)Gal(b1-4)GlcNAc(b1-6)]GalNAc
# Procedure, shortened: as §1
# [7] = biological target: Fuc(a1-2)Gal(b1-4)GlcNAc(b1-3)[Fuc(a1-3)[Gal(b1-4)]GlcNAc(b1-6)]Gal(b1-4)Glc
# Procedure, shortened: as §1
# [8] = biological target: Fuc(a1-2)Gal(b1-4)GlcNAc(b1-6)GalNAc
# Procedure, shortened: as §1
# [9] = biological target: Fuc(a1-2)Gal(b1-4)GlcNAc6S
# Procedure, shortened: as §1
# [10] = biological target: Fuc(a1-2)Gal(b1-4)[Fuc(a1-3)]GlcNAc
# Procedure, shortened: as §1
# [11] = biological target: Fuc(a1-2)Gal(b1-4)[Fuc(a1-3)]GlcNAc(b1-2)Man(a1-3)[Fuc(a1-2)Gal(b1-4)[Fuc(a1-3)]GlcNAc(b1-2)Man(a1-6)]Man(b1-4)GlcNAc(b1-4)GlcNAc
# Procedure, shortened: as §1
# [12] = biological target: Fuc(a1-2)Gal(b1-4)[Fuc(a1-3)]GlcNAc(b1-2)Man(a1-3)[Fuc(a1-2)Gal(b1-4)[Fuc(a1-3)]GlcNAc(b1-2)Man(a1-6)]Man(b1-4)GlcNAc(b1-4)[Fuc(a1-6)]GlcNAc
# Procedure, shortened: as §1
# [13] = biological target: Fuc(a1-2)Gal(b1-4)[Fuc(a1-3)]GlcNAc(b1-2)[Fuc(a1-2)Gal(b1-4)[Fuc(a1-3)]GlcNAc(b1-4)]Man(a1-3)[Fuc(a1-2)Gal(b1-4)[Fuc(a1-3)]GlcNAc(b1-2)Man(a1-6)]Man(b1-4)GlcNAc(b1-4)GlcNAc
# Procedure, shortened: as §1
# [14] = biological target: Fuc(a1-2)Gal(b1-4)[Fuc(a1-3)]GlcNAc(b1-3)Gal(b1-4)[Fuc(a1-3)]GlcNAc
# Procedure, shortened: as §1
# [15] = biological target: Fuc(a1-2)Gal(b1-4)[Fuc(a1-3)]GlcNAc(b1-3)Gal(b1-4)[Fuc(a1-3)]GlcNAc(b1-3)Gal(b1-4)[Fuc(a1-3)]GlcNAc
# Procedure, shortened: as §1
# [16] = biological target: Fuc(a1-2)Gal(b1-4)[Fuc(a1-3)]GlcNAc(b1-3)GalNAc
# Procedure, shortened: as §1
# [17] = biological target: Fuc(a1-2)Gal(b1-4)[Fuc(a1-3)]GlcNAc(b1-3)[Neu5Ac(a2-6)Gal(b1-4)GlcNAc(b1-6)]Gal(b1-4)Glc
# Procedure, shortened: as §1
# [18] = biological target: Fuc(a1-2)Gal3S(b1-4)GlcNAc
# Procedure, shortened: as §1
# [19] = biological target: Fuc(a1-2)Gal6S(b1-3)GlcNAc
# Procedure, shortened: as §1
# [20] = biological target: Fuc(a1-2)Gal6S(b1-3)GlcNAc6S
# Procedure, shortened: as §1
# Fuc(a1-2)Gal6S(b1-4)Glc = biological target: Fuc(a1-2)Gal6S(b1-4)Glc
# Procedure, shortened: as §1
# [21] = biological target: Fuc(a1-2)Gal6S(b1-4)Glc6S
# Procedure, shortened: as §1
# [22] = biological target: Fuc(a1-2)Gal6S(b1-4)GlcNAc
# Procedure, shortened: as §1
# Fuc(a1-2)[Gal(a1-3)]Gal = biological target: Fuc(a1-2)[Gal(a1-3)]Gal
# Procedure, shortened: as §1
# [23] = biological target: Fuc(a1-2)[Gal(a1-3)]Gal(b1-3)GalNAc
# Procedure, shortened: as §1
# [24] = biological target: Fuc(a1-2)[Gal(a1-3)]Gal(b1-3)GalNAc(b1-3)Gal(a1-4)Gal(b1-4)Glc
# Procedure, shortened: as §1
# [25] = biological target: Fuc(a1-2)[Gal(a1-3)]Gal(b1-3)GlcNAc
# Procedure, shortened: as §1
# [26] = biological target: Fuc(a1-2)[Gal(a1-3)]Gal(b1-3)GlcNAc(b1-2)Man(a1-3)[Fuc(a1-2)[Gal(a1-3)]Gal(b1-3)GlcNAc(b1-2)Man(a1-6)]Man(b1-4)GlcNAc(b1-4)GlcNAc
# Procedure, shortened: as §1
# [27] = biological target: Fuc(a1-2)[Gal(a1-3)]Gal(b1-3)GlcNAc(b1-2)Man(a1-3)[Fuc(a1-2)[Gal(a1-3)]Gal(b1-3)GlcNAc(b1-2)Man(a1-6)]Man(b1-4)GlcNAc(b1-4)[Fuc(a1-6)]GlcNAc
# Procedure, shortened: as §1
# [28] = biological target: Fuc(a1-2)[Gal(a1-3)]Gal(b1-3)GlcNAc(b1-3)GalNAc
# Procedure, shortened: as §1
binder,measurement,setting,value
KISKRILTGKK [NK11 (Sus scrofa)],glycan array binding signal (z-score),[1],0.234
same,glycan array binding signal (z-score),[2],-0.495
same,glycan array binding signal (z-score),[3],1.2
same,glycan array binding signal (z-score),[4],0.299
same,glycan array binding signal (z-score),[5],0.09
same,glycan array binding signal (z-score),[6],0.131
same,glycan array binding signal (z-score),[7],0.348
same,glycan array binding signal (z-score),[8],-0.705
same,glycan array binding signal (z-score),[9],-0.339
same,glycan array binding signal (z-score),[10],1.06
same,glycan array binding signal (z-score),[11],0.226
same,glycan array binding signal (z-score),[12],0.572
same,glycan array binding signal (z-score),[13],0.385
same,glycan array binding signal (z-score),[14],-0.13
same,glycan array binding signal (z-score),[15],-0.781
same,glycan array binding signal (z-score),[16],0.933
same,glycan array binding signal (z-score),[17],-0.454
same,glycan array binding signal (z-score),[18],-0.071
same,glycan array binding signal (z-score),[19],-0.567
same,glycan array binding signal (z-score),[20],-0.235
same,glycan array binding signal (z-score),Fuc(a1-2)Gal6S(b1-4)Glc,-0.458
same,glycan array binding signal (z-score),[21],-0.268
same,glycan array binding signal (z-score),[22],-0.302
same,glycan array binding signal (z-score),Fuc(a1-2)[Gal(a1-3)]Gal,-0.515
same,glycan array binding signal (z-score),[23],0.028
same,glycan array binding signal (z-score),[24],-0.219
same,glycan array binding signal (z-score),[25],1.13
same,glycan array binding signal (z-score),[26],-0.23
same,glycan array binding signal (z-score),[27],-0.614
same,glycan array binding signal (z-score),[28],0.052

# Part of the list above, as tab-separated lines:
binder	measurement	setting	value
KISKRILTGKK [NK11 (Sus scrofa)]	glycan array binding signal (z-score)	[9]	-0.339
same	glycan array binding signal (z-score)	[10]	1.06
